Data from patent US5434133A (Suntory Limited, priority 1991, dated 1995).
Strings that start with PEPTIDE1 are HELM notation: dots part the residues, brackets hold end groups and non-standard residues.

Assay: general procedure: Boc solid-phase peptide synthesis; Boc-Tyr(Br-Z)-O-CH2-PAM resin; DCC/HOBt
Settings: whole synthesis

Substance: PEPTIDE1{G.L.S.K.G.C.F.G.G.R.M.D.R.I.G.A.Q.S.E.L.E.C.N.S.F.R.Y}$PEPTIDE1,PEPTIDE1,6:R3-22:R3$$$V2.0
- isolated mass (scale 0.5 mmol): 150 mg
- final purity (method not given) (scale of the general procedure 0.5 mmol): at least 97%
